System: SOD1(G93A) transgenic mouse model of ALS
Experiment: Motor performance in the running wheel, SOD1(G93A) ALS mouse model
Assay type: in vivo
Protocol: Drug treatment starts at day 45.
Memantine is supplied by MERZ pharmaceuticals. […] Drugs are dissolved in drinking water. […] Memantine is administered twice a day subcutaneously.
Consumption of drinking water is checked randomly.
4. Motor Performance in the running wheel

Question: Which “Half Maximum Performance” value (both gender) does the source give for Nc1nc2ccc(OC(F)(F)F)cc2s1 [Riluzole, 2-amino-6-trifluromethoxybenzothiazole] here?
Answer: 103.9 days

Question: And the “Half Maximum Performance, Difference” value (versus vehicle control 106.1)?
Answer: -2.2 days
